# Measurements as given in the supplement of paper PMC12889115.
# The other results are listed elsewhere or left out. These are raw signals, not scaled to a control.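 Primary screen: polymyxin B was added at a level permeabilizing Salmonella outer membranes while sparing inner membranes. DMSO wells, both with and without polymyxin B, established maximum growth. Plate-to-plate variation meant each plate was ranked on its own, and the lowest-OD600 compounds were selected as hits.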
# Test system: Salmonella enterica serovar Typhimurium SL1344
# Test: bacterial growth OD600 after 18 h with compound and polymyxin B; higher = more bacterial growth (less inhibition)
# Conditions: 50 µM, Mueller-Hinton broth
SMILES,bacterial growth OD600 (polymyxin B 1 µg/mL),bacterial growth OD600 (polymyxin B 0.75 µg/mL)
O=C(NCc1ccc2c(c1)OCO2)C1CCC(=O)N(CCN2CCOCC2)C1 (stereo unspecified),1.2,–
Cc1c(CC(=O)NCC(F)(F)F)c2c(n1Cc1ccccc1)CCCC2=O,1.12,–
O=C1O[C@@H]2CN(Cc3c[nH]cn3)C[C@@H]2N1CCCc1ccc(F)cc1,–,0.895
Cc1ccc(F)cc1CNC(=O)c1cc(CN2CCOCC2)on1,–,0.841
C=CCNC(=O)c1coc(COc2cccc3cnccc23)n1,0.845,–
COc1ccc(/C=C/C(=O)N2CCC3(CC2)CC3C(=O)N(C)Cc2nonc2C)cc1 (stereo unspecified),–,1.02
COCCCC1CCN(C(=O)c2ccc(OC3CCN(C(=O)C4CC4)CC3)cc2)CC1,0.916,–
CCOC(=O)N1CCC(N2CCOc3ccc(CN4CCCCC4C(=O)OC)cc3C2)CC1 (stereo unspecified),–,0.769
Cc1ccc(Oc2ncccc2CNCc2c[nH]cn2)c(F)c1F,1.11,–
CC(C)CNc1ccc(C(=O)N2CCCN(c3ncccn3)CC2)cn1,1.01,–
COc1cccc(CN2C(=O)NC(C)(C3CCN(C(=O)c4ccc(F)cc4)CC3)C2=O)c1OC (stereo unspecified),–,0.754
COCCC(=O)N1CCC(Oc2ccc(C(=O)NCC3CCOCC3)cc2)CC1,0.848,–
Fc1ccccc1Cc1noc(CN2CCN(c3cccc(Cl)c3)CC2)n1,0.584,–
CC(C)CNC(=O)C1CCC(=O)N(C2CC2)C1 (stereo unspecified),0.963,–
COc1ccc(OC)c(-c2nc(CN3CCN(c4cnccn4)CC3)c(C)o2)c1,–,0.795
COC(=O)C1CCCCN1Cc1ccc2c(c1)CN(Cc1ccc(Sc3nncn3C)o1)CCO2 (stereo unspecified),–,1.04
O=C(CCc1cnccn1)N1CCCC(CCc2ccc(F)cc2F)C1 (stereo unspecified),–,0.804
COC(=O)C1CCN(C(=O)CC(c2ccccc2)c2ccccc2Cl)CC1 (stereo unspecified),0.026,–
CCc1noc(C)c1C(=O)N1CCc2onc(-c3cccc(OC)c3)c2C1,0.951,–
COC(=O)c1cccc(-c2cc(Cl)c3c(c2)CC(CNC(=O)c2ccnn2C)O3)c1 (stereo unspecified),–,0.069
CCCCN(C)C(=O)c1sc2ncnc(NCCc3ccccn3)c2c1C,–,0.844

# 3 structures from above, arranged by length of the SMILES, largest number first:
SMILES,bacterial growth OD600 (polymyxin B 1 µg/mL),bacterial growth OD600 (polymyxin B 0.75 µg/mL)
CCOC(=O)N1CCC(N2CCOc3ccc(CN4CCCCC4C(=O)OC)cc3C2)CC1 (stereo unspecified),–,0.769
COCCC(=O)N1CCC(Oc2ccc(C(=O)NCC3CCOCC3)cc2)CC1,0.848,–
O=C(CCc1cnccn1)N1CCCC(CCc2ccc(F)cc2F)C1 (stereo unspecified),–,0.804
